Part of at least one peptide drawing is inferred or uncertain, most often the ends. Where a SMILES comes first, the peptide text is derived from it. Bridges are numbered along the chain shown (N, C = ends). The star is where a group is joined. DTPA = O=C(O)CN(CCN(CC(=O)O)CC(=O)O)CCN(CC(=O)O)CC(=O)*
Experiments:
[1] = Relaxivity measurement (T1 and T2 water proton relaxivities); assay type: physicochemical; conditions: aqueous solution, 3T, room temperature
[2] = test system: MDA-MB-231 human breast carcinoma xenografts; assay: In vivo MR molecular imaging in MDA-MB-231 xenografts; parameters: species or system mice
[3] = test system: HT-29 human colon carcinoma xenografts; assay: In vivo MR molecular imaging in HT-29 xenografts; parameters: species or system mice; conditions: for CNR in competitive study, tumor periphery: presence of free peptide (3-fold excess)
Description: In vivo molecular imaging of fibrin-fibronectin complexes in tumor with the targeted contrast agent and MRI was evaluated in female athymic nu/nu mice bearing HT-29 human colon carcinoma xenografts with a T1-weighted 2D spin-echo sequence. A clinical contrast agent, Gd(DTPA-BMA), was used as a control. Competitive targeting of free CLT1 peptide to CLT1-(Gd-DTPA) was also studied with coinjection of CLT1-(Gd-DTPA) and a 3-fold excess of free CLT1 peptide. A group of 3 mice were used for each contrast agent. The mice were anesthetized by intramuscular administration of a mixture of ketamine (45 mg/kg) and xylazine (6 mg/kg) for MRI. The CLT1-(Gd-DTPA) and Gd(DTPA-BMA) was intravenously injected at a dose of 0.1 mmol/kg. Contrast enhanced MR images were acquired before and after injection at 1, 10, 20, 30 and 60 minutes on a Siemens Trio 3T scanner using a human wrist coil. High resolution 3D images were acquired with a 3D FLASH sequence with 25° flip angel, TR/TE=7.8/2.7 ms, slice thickness 0.5 mm, field of view (FOV) 120 mm, voxel size 0.5×0.5×0.5 mm T1-weighted 2D axial tumor images were acquired with a 2D spin echo sequence with TR 400 ms, TE 10 ms, 90° tip angel and FOV 50 mm Mice were sacrificed 24 hours post-injection and tumor tissues were cut and fixed with 3% paraformaldehyde and embedded in paraffin. Tissue sections (4-μm thickness) were incubated in 3% H2O2 for 10 minutes to block endogenous peroxidase activity and boiled in antigen retrieval solution for 15 minutes in microwave. The sections were then incubated with primary antibody overnight and secondary antibody the second day for visualization using the ABC kit (Santa Cruz Biotechnology).
MR signal intensity was also measured and the contrast to noise ratio (CNR) in the tumor tissues was calculated as CNR=(SItissue−SImuscle)/SDnoise.

[4] = test system: U87 human glioblastoma xenografts; conditions: same dose 0.05 mmol/kg, vs Gd(DTPA-BMA)
[5] = 0.1 mmol/kg iv, up to 60 minutes post-injection

SMILES: CC[C@H](C)[C@@H]1NC(=O)[C@H](CC(C)C)NC(=O)CNC(=O)[C@@H](NC(=O)CN(CCN(CCN(CC(=O)O)CC(=O)O)CC(=O)O)CC(=O)O)CSSC[C@@H](C(=O)O)NC(=O)[C@H](CCC(=O)O)NC(=O)[C@H](CC(N)=O)NC(=O)[C@H](CCCCN)NC(=O)[C@H](CCC(N)=O)NC(=O)[C@H]([C@@H](C)CC)NC1=O [CLT1-(Gd-DTPA)] ({DTPA}-CGLIIQKNEC-OH; disulfide 1-10)
- T1 relaxivity (r1) [1]: 4.22 mM⁻¹ s⁻¹
- tumor enhancement (T1-weighted 2D spin-echo MRI) ([2]; 60 minutes postinjection, 0.05 mmol/kg): Strong enhancement was still visible
- tumor enhancement (T1-weighted 2D spin-echo MRI) ([2]; first 15 minutes post-injection, CLT1-(Gd-DTPA) 0.05 mmol/kg, Gd(DTPA-BMA) 0.1 mmol/kg): Significant tumor enhancement
- tumor enhancement (T1-weighted 2D spin-echo images) ([3]; 0.1 mmol/kg iv, 10 minutes post-injection): Significant enhancement
- tumor enhancement (T1-weighted 2D spin-echo images) ([3]; 0.1 mmol/kg iv, 60 minutes after injection): strong enhancement was visible
- CNR time course, tumor inner area [3, 5]: increased gradually
- CNR time course, tumor periphery [3, 5]: decreased gradually
- CNR vs control Gd(DTPA-BMA), tumor inner area ([3]; 60 minutes post-injection, p<0.05): significantly higher CNR
- tumor enhancement in competitive study ([3]; coinjection of a 3-fold excess of free CLT1 peptide): strongly reduced
- CNR in competitive study, tumor periphery ([3]; first 10 minutes post-injection, p<0.05): significant reduction of CNR
- CNR in competitive study, tumor periphery ([3]; since 30 minutes post-injection): significant reduction of CNR
- CNR vs control Gd(DTPA-BMA), tumor periphery ([3]; since 10 minute post injection, p<0.05): significantly higher CNR
- tumor enhancement (T1 weighted 2D spin-echo images) [4]: more significant enhancement in tumor than Gd(DTPA-BMA)

Reference: patent publication US20110236316A1, “PEPTIDE TARGETING IMAGING AGENTS AND METHODS OF USE THEREOF” (University of Utah Research Foundation, priority 2008, published 2011)
